From paper PMC12717121, “ABA-independent PP2C-binding in PYLs traces to bacterial origins and persists in land plants” (Nature Communications, 2025)
These are yes or no findings as the source states them, for the method shown. Binding can be weak; no strength is given. For part of these data: Sequences can lack the tags named with a protein.

Amino acid sequences for entries named in this document (tags omitted). A change or cut given only in a name is not applied to a line headed by its entry.
UniProt P49597, whole entry, stated change not applied: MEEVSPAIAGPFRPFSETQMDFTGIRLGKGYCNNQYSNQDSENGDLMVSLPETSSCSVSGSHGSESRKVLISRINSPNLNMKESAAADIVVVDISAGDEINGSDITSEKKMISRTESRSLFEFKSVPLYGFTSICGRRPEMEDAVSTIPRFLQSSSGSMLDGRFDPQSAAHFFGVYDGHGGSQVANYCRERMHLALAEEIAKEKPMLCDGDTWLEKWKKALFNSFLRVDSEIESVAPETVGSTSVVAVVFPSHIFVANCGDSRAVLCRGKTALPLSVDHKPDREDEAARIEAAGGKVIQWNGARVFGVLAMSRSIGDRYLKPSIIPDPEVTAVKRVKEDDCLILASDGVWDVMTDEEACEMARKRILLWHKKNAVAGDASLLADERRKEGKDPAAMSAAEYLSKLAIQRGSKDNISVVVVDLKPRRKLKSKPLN

Experiments:
Assay in all cases: two-hybrid; Matchmaker GAL4 Two-Hybrid System, yeast strain Y2HGold co-transformed with paired constructs; growth on selective SD/-Leu-Trp-His (or -LWHA) media without or with 10 µM ABA
[1] = target: AtABI1 (Arabidopsis clade A PP2C), two-hybrid fusion (Arabidopsis) (UniProt P49597)
[2] = target: T1, HAB2 (Arabidopsis clade A PP2C), two-hybrid fusion (Arabidopsis) (UniProt Q9LNP9)
T1 sequence: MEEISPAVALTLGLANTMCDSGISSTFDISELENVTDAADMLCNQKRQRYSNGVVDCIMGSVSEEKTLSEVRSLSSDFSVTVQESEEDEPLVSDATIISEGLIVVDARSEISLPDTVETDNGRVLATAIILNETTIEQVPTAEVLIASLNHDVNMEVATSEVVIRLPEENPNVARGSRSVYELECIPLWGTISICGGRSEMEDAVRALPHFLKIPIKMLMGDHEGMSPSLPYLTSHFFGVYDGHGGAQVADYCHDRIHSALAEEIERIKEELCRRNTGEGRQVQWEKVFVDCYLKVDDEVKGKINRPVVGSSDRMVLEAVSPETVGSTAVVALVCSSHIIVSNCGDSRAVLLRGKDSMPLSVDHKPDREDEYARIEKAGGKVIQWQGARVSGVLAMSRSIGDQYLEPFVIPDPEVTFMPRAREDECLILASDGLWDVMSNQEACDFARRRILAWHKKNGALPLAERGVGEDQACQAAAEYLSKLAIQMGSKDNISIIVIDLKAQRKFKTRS

[3] = target: T2, PP2CA (Arabidopsis clade A PP2C), two-hybrid fusion (Arabidopsis) (UniProt P49598)
T2 sequence: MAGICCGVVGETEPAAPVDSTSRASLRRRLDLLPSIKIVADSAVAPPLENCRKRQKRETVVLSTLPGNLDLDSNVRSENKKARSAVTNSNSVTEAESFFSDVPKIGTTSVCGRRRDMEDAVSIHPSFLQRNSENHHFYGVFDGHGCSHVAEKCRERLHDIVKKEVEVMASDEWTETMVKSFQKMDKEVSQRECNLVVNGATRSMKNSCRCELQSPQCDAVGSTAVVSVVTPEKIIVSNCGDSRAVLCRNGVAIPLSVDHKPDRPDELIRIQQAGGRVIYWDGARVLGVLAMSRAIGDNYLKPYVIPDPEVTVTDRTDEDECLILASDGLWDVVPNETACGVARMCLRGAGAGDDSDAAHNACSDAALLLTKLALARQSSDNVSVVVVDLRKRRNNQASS

Measured: binding

Paraburkholderia rhynchosiae PYL (PrPYL) (from UniProt A0A2N7VMU2)
binds weakly: all assays above
